Experiment [1] has as its target His6-HA4 (monobody HA4). Briefly: fluorescence microscopy of coated agarose beads; His-tagged monobody on Ni-NTA agarose beads, 2 µM YFP-SH2 in Buffer A, equilibrated in the dark, imaged at room temperature from darkness into blue light (450 nm), images every 2 min for 8 min; both purified.
For experiment [2], the target named is His6-HA4 (monobody HA4). Briefly: SEC; Superdex 200 16/300, Buffer A, 4 °C, 1 mL/min; about 1.2:1 binder to target; incubated and run in the dark or under blue light (450 nm); both purified. On the technique in general: SEC sorts molecules by how far they enter the pores of the column.
For experiment [3], the target named is His6-YFP-SH2 (human). The experiment in a line: pull-down; His6-YFP-SH2 held on Co2+ agarose (Talon) and washed; clarified E. coli lysates of the chimeras with FMN; 45 min at 4 °C under blue light (450 nm) or in the dark; Binding buffer (Tris 100 mM pH 8.0, NaCl 150 mM, glycerol 1%, 5 mM imidazole); imidazole elution, SDS-PAGE; only the target purified.

From article PMC7427095 (2020) come the findings set out here.

No constants are given. Whether binding was seen depends on the method and setting. For part of these data: Binding seen in cells or lysates may run through a third protein. Some entries that bind do so weakly or less than the wild type. For part of these data: Where a sequence is shown, tags or fusion partners need not be part of it.

B1: YFP-SH2 (fusion of yellow fluorescent protein and the SH2 domain of human Abl kinase), purified (domain or fragment)
chain: SLEKHSWYHGPVSRNAAEYLLSSGINGSFLVRESESSPGQRSISLRYEGRVYHYRINTASDGKLYVSSESRFNTLAELVHHHSTVADGLITTLHYPAPKRNKPTVYGVSPNY
Take B1: the binding result in experiment [1] and in experiment [2] was “binds” each time.

B2: HA4-AsLOV2 (SS30 insertion) (designed binder)
chain: GSSVSSVPTKLEVVAATPTSLLISWDAPMSGLERIEKNFVITDPRLPDNPIIFASDSFLQLTEYSREEILGRNCRFLQGPETDRATVRKIRDAIDNQTEVTVQLINYTKSGKKFWNLFHLQPMRDQKGDVQYFIGVQLDGTEHVRDAAEREGVMLIKKTAENIDEAAGSSSVYYYRITYGETGGNSPVQEFTVPYSSSTATISGLSPGVDYTITVYAWGEDSAGYMFMYSPISINYRTC
Regarding B2, the binding entry in experiment [3] is “binds”.
